Experimental data from the supplement of paper PMC6658780.
Structures can show the parent of a compound that is named as a salt. ± gives the standard deviation of the averaged measurements. This is one part of the list. This data set is noisy: repeats of one test often differ as much as different tests do.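 Clinical A. baumannii isolates resistant to the partner antibiotic were chosen, and the screen identifies drugs restoring that antibiotic's activity. Subtracting the initial incubation reading corrects for coloured-compound background.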

Each compound was assayed on Acinetobacter baumannii WP-487 (assay: percent growth inhibition of drug alone vs DMSO control; higher = more growth inhibition). Settings: antibiotic (0.125x MIC): none (0.1% DMSO); 7 µM.
Protocol: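 Prestwick drugs tested at 20 uM and 7 uM with an antibiotic at 0.125x MIC (16 mg/L when MIC >128 mg/L) in cation-adjusted Mueller-Hinton broth, 384-well plates, duplicate runs on different days. Percent growth inhibition was computed from OD600 (24 h minus 0 h) relative to DMSO-only wells. Drug + 0.1% DMSO (no antibiotic) wells are also given. Only hits (max corrected inhibition > mean + 3SD) are listed. A. baumannii: NCTC-13301 was used for MEM/CIP/GEN/TGC and WP-487 for colistin. Duplicates with colistin are strongly discordant (run 2 near 100% for most drugs).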

Row | Structure (SMILES) | percent growth inhibition of drug alone [%]
1 | COc1cc(NS(=O)(=O)c2ccc(N)cc2)ncn1 [Sulfamonomethoxine] | 55.7 ± 57
2 | Clc1ccc(CCC(Cn2ccnc2)Sc2c(Cl)cccc2Cl)cc1 (stereo not given) [Butoconazole nitrate] | -19.8 ± 25
3 | CO[C@@H]1[C@@H](O[C@@H]2O[C@H](C)[C@@H](O[C@H]3C[C@@](C)(O)[C@@H](OC(=O)CC(C)C)[C@H](C)O3)[C@H](N(C)C)[C@H]2O)[C@@H](CC=O)C[C@@H](C)[C@@H](O)/C=C/C=C/C[C@@H](C)OC(=O)C[C@H]1OC(C)=O [Josamycin] | 7.61 ± 4.7
4 | Cc1cccc(C)c1NC(=O)C(C)N (stereo not given) [Tocainide hydrochloride] | 7.67 ± 3.5
5 | O=C(c1ccc(OCCN2CCCCC2)cc1)c1c(-c2ccc(O)cc2)sc2cc(O)ccc12 [Raloxifene hydrochloride] | -0.99 ± 6.1
6 | COc1cccc2c1C(=O)c1c(O)c3c(c(O)c1C2=O)C[C@@](O)(C(=O)CO)C[C@@H]3O[C@H]1C[C@H](N)[C@@H](O)[C@H](C)O1 [Epirubicin hydrochloride] | 12.1 ± 4.3
7 | CO[C@H]1C[C@H](O[C@H]2[C@H](C)[C@@H](O[C@@H]3O[C@H](C)C[C@H](N(C)C)[C@H]3OC(C)=O)[C@@H](C)C[C@@]3(CO3)C(=O)[C@H](C)[C@@H](OC(C)=O)[C@@H](C)[C@@H](C)OC(=O)[C@@H]2C)O[C@@H](C)[C@@H]1OC(C)=O [Troleandomycin] | 2.35 ± 5
8 | CC/C(=C(\c1ccccc1)c1ccc(OCCN(C)C)cc1)c1ccccc1 [Tamoxifen citrate] | 2.43 ± 1.8
9 | CN(C)CCCN1c2ccccc2CCc2ccc(Cl)cc21 [Clomipramine hydrochloride] | -0.466 ± 9.5
10 | NC[C@H]1O[C@H](O[C@H]2[C@H](O)[C@@H](O[C@H]3O[C@H](CO)[C@@H](O)[C@H](N)[C@H]3O)[C@H](N)C[C@@H]2N)[C@H](N)C[C@@H]1O [Tobramycin] | 56.6 ± 61
11 | Clc1ccc(COC(Cn2ccnc2)c2ccc(Cl)cc2Cl)cc1 (stereo not given) [Econazole nitrate] | -6.83 ± 6.6
12 | O=C1Nc2ccc(Cl)cc2[C@@](C#CC2CC2)(C(F)(F)F)O1 [Efavirenz] | 0.53 ± 4.9
13 | Nc1ccc(S(=O)(=O)Nc2ccnn2-c2ccccc2)cc1 [Sulfaphenazole] | 2.46 ± 3.5
14 | Clc1ccc(C(c2ccccc2Cl)C(Cl)Cl)cc1 (stereo not given) [Mitotane] | -1.08 ± 7.7
15 | CCC(C)(C)c1ccc(CC(C)CN2C[C@@H](C)O[C@@H](C)C2)cc1 (stereo not given in full) [Amorolfine hydrochloride] | 3.36 ± 2.9
16 | Clc1ccc(COC(Cn2ccnc2)c2ccc(Cl)cc2Cl)c(Cl)c1 (stereo not given) [Miconazole] | -4.34 ± 4.1
17 | Clc1ccccc1C(c1ccccc1)(c1ccccc1)n1ccnc1 [Clotrimazole] | -2.86 ± 4.7
18 | C#C[C@]1(O)CC[C@H]2[C@@H]3CCC4=Cc5oncc5C[C@]4(C)[C@H]3CC[C@@]21C [Danazol] | -3.94 ± 8.8
19 | C=CCOC(Cn1ccnc1)c1ccc(Cl)cc1Cl (stereo not given) [Enilconazole] | 2.58 ± 3.5
20 | Clc1ccc(C(Cn2ccnc2)OCc2ccsc2Cl)c(Cl)c1 (stereo not given) [Tioconazole] | 0.499 ± 2.2

Same assay, conditions: antibiotic (0.125x MIC): none (0.1% DMSO); 20 µM

Row | Structure (SMILES) | percent growth inhibition of drug alone [%]
21 | COc1cc(NS(=O)(=O)c2ccc(N)cc2)ncn1 [Sulfamonomethoxine] | 95.6 ± 1.4
22 | Clc1ccc(CCC(Cn2ccnc2)Sc2c(Cl)cccc2Cl)cc1 (stereo not given) [Butoconazole nitrate] | -0.464 ± 6.8
23 | CO[C@@H]1[C@@H](O[C@@H]2O[C@H](C)[C@@H](O[C@H]3C[C@@](C)(O)[C@@H](OC(=O)CC(C)C)[C@H](C)O3)[C@H](N(C)C)[C@H]2O)[C@@H](CC=O)C[C@@H](C)[C@@H](O)/C=C/C=C/C[C@@H](C)OC(=O)C[C@H]1OC(C)=O [Josamycin] | 14.3 ± 2.8
24 | Cc1cccc(C)c1NC(=O)C(C)N (stereo not given) [Tocainide hydrochloride] | 5.58 ± 12
25 | O=C(c1ccc(OCCN2CCCCC2)cc1)c1c(-c2ccc(O)cc2)sc2cc(O)ccc12 [Raloxifene hydrochloride] | 17.5 ± 22
26 | COc1cccc2c1C(=O)c1c(O)c3c(c(O)c1C2=O)C[C@@](O)(C(=O)CO)C[C@@H]3O[C@H]1C[C@H](N)[C@@H](O)[C@H](C)O1 [Epirubicin hydrochloride] | 42.1 ± 57
27 | CO[C@H]1C[C@H](O[C@H]2[C@H](C)[C@@H](O[C@@H]3O[C@H](C)C[C@H](N(C)C)[C@H]3OC(C)=O)[C@@H](C)C[C@@]3(CO3)C(=O)[C@H](C)[C@@H](OC(C)=O)[C@@H](C)[C@@H](C)OC(=O)[C@@H]2C)O[C@@H](C)[C@@H]1OC(C)=O [Troleandomycin] | 18.8 ± 19
28 | CC/C(=C(\c1ccccc1)c1ccc(OCCN(C)C)cc1)c1ccccc1 [Tamoxifen citrate] | 2.38 ± 7.2
29 | CN(C)CCCN1c2ccccc2CCc2ccc(Cl)cc21 [Clomipramine hydrochloride] | 0.396 ± 2.2
30 | NC[C@H]1O[C@H](O[C@H]2[C@H](O)[C@@H](O[C@H]3O[C@H](CO)[C@@H](O)[C@H](N)[C@H]3O)[C@H](N)C[C@@H]2N)[C@H](N)C[C@@H]1O [Tobramycin] | 100.4 ± 0.62
31 | Clc1ccc(COC(Cn2ccnc2)c2ccc(Cl)cc2Cl)cc1 (stereo not given) [Econazole nitrate] | -6.23 ± 0.51
32 | O=C1Nc2ccc(Cl)cc2[C@@](C#CC2CC2)(C(F)(F)F)O1 [Efavirenz] | -6.45 ± 1.5
33 | Nc1ccc(S(=O)(=O)Nc2ccnn2-c2ccccc2)cc1 [Sulfaphenazole] | 52.2 ± 59
34 | Clc1ccc(C(c2ccccc2Cl)C(Cl)Cl)cc1 (stereo not given) [Mitotane] | 0.196 ± 3.3
35 | CCC(C)(C)c1ccc(CC(C)CN2C[C@@H](C)O[C@@H](C)C2)cc1 (stereo not given in full) [Amorolfine hydrochloride] | 9.37 ± 12
36 | Clc1ccc(COC(Cn2ccnc2)c2ccc(Cl)cc2Cl)c(Cl)c1 (stereo not given) [Miconazole] | -4.33 ± 8.4
37 | Clc1ccccc1C(c1ccccc1)(c1ccccc1)n1ccnc1 [Clotrimazole] | -5.99 ± 0.06
38 | C#C[C@]1(O)CC[C@H]2[C@@H]3CCC4=Cc5oncc5C[C@]4(C)[C@H]3CC[C@@]21C [Danazol] | -0.489 ± 0.91
39 | C=CCOC(Cn1ccnc1)c1ccc(Cl)cc1Cl (stereo not given) [Enilconazole] | 6.83 ± 14
40 | Clc1ccc(C(Cn2ccnc2)OCc2ccsc2Cl)c(Cl)c1 (stereo not given) [Tioconazole] | 2.76 ± 10
